At least one structure is not confirmed: it was looked up by name or label, or the drawing left a doubt.
Test: In vitro Schiff base confirmation by UV/VIS spectroscopy (solution phase)

Structure (SMILES): COC(=O)c1ccccc1N [Compound 5]
- RAL-SBC λmin (Schiff base condensation product of RAL and compound, UV/VIS): 336 nm
- RAL-SBC tau (Schiff base condensation with RAL, solution phase, 100:1 mixture of compound and RAL): 3,000 sec
- free λmax (free compound, UV/VIS): 335 nm

Source: patent US11724987B2, “Compositions and methods of treating retinal disease” (Aldeyra Therapeutics, Inc., priority 2005, dated 2023)
